Record: PubChem BioAssay AID1224826 (NIAID, 2016)
Aim: 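Genes that change LPS-induced Tnf promoter activity in mouse macrophages when knocked down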 (primary screen). System: RAW264.7 G9 macrophages from mouse bearing reporters for p65 (GFP) and the Tnf promoter (mCherry). Knock-down reagent: siRNA pool against mouse genes, 100 nM. Duration: 16 h of LPS stimulation, after 2 days of siRNA transfection. Challenge: bacterial lipopolysaccharide (Salmonella minnesota R595), 10 ng/ml. Measurement: 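Imaged Tnf reporter mCherry in nuclei, minus background, normalised per plate to the median and expressed as robust z-scores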. Reading the numbers: Tnf reporter robust z-score: higher = stronger Tnf promoter reporter signal after LPS. Call rule: 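a well counts as active at a score of -1.3 or below (Tlr4 knock-down control median) or above 3 (raised signal); controls and wells holding fewer than 50 cells are excluded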. Meaning of the calls: active = Tnf reporter clearly lowered or raised; inactive = no clear change in Tnf reporter.
This is a random part of about 17,000 reagents tested. Of all reagents, about 1,110 (6.6%) were called active. 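Active means lowered or raised reporter signal; replicate intensities are raw and not normalised per plate.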 Entries without a mark were called inactive. Further read-outs or replicates are left out here.

| Target gene | Tnf reporter robust z-score | fewer than 50 cells in well |
| --- | --- | --- |
| Skint11 | 0.04 | enough cells in well |
| Tff1 | – | fewer than 50 cells per well; well left out of calls |
| Itga3 | -0.14 | enough cells in well |
| Gdf5 | 0.73 | enough cells in well |
| Orm2 | -0.98 | enough cells in well |
| Dnajb11 | 3 | enough cells in well |
| Siah2 | -0.01 | enough cells in well |
| Gmppb | 0.89 | enough cells in well |
| Cd22 | 0.87 | enough cells in well |
| Or5b122 | 0.42 | enough cells in well |
| Diaph1 | 0.03 | enough cells in well |
| Fbxo44 | 2.26 | enough cells in well |
| Or6c2 | 0.77 | enough cells in well |
| Dync1h1 | 0.73 | enough cells in well |
| Mtcl1 | -0.95 | enough cells in well |
| Vamp7 | 2.01 | enough cells in well |
| Nkd2 | 0.91 | enough cells in well |
| Klhl15 | 1.81 | enough cells in well |
| Magea6 | 1.47 | enough cells in well |
| Gde1 | -0.27 | enough cells in well |
| Chchd1 | 1.07 | enough cells in well |
| Cggbp1 | 0.7 | enough cells in well |
| Amotl2 | -1.53 (active) | enough cells in well |
| Rars1 | 0.69 | enough cells in well |
| Rgs8 | 1.52 | enough cells in well |
| Cdk13 | 0.56 | enough cells in well |
| Chrna3 | -1.47 (active) | enough cells in well |
| Bbs5 | – | fewer than 50 cells per well; well left out of calls |
| Gm5108 | 1.81 | enough cells in well |
| Ifi27l2b | – | fewer than 50 cells per well; well left out of calls |
| Crebl2 | -1.14 | enough cells in well |
| Adamts2 | 1.74 | enough cells in well |
| Dnajb7 | -0.75 | enough cells in well |
| Bspry | – | fewer than 50 cells per well; well left out of calls |
| Ankrd33 | -1.14 | enough cells in well |
| Agmo | -0.5 | enough cells in well |
| Lmbrd1 | 1.35 | enough cells in well |
| Tmed1 | -0.92 | enough cells in well |
| Arfgef1 | -0.56 | enough cells in well |
| Itga11 | 1.36 | enough cells in well |
| Pik3ip1 | -0.4 | enough cells in well |
| Chmp2a | 1.27 | enough cells in well |
| Cer1 | 0.6 | enough cells in well |
| Fstl3 | -0.59 | enough cells in well |
| Slitrk3 | – | fewer than 50 cells per well; well left out of calls |
| Sfmbt2 | 0.12 | enough cells in well |
| Rrp15 | 0.67 | enough cells in well |
| Zfp775 | -0.11 | enough cells in well |
| Slc7a3 | -0.66 | enough cells in well |
| Zfp874a | -0.95 | enough cells in well |
| Il17b | 1.01 | enough cells in well |
| Tmprss5 | – | fewer than 50 cells per well; well left out of calls |
| Or4k5 | 3.69 (active) | enough cells in well |
| Cntrl | -1.11 | enough cells in well |
| Pcdha4 | 2.44 | enough cells in well |
| Rps21 | -0.36 | enough cells in well |
| Postn | -0.17 | enough cells in well |
| Ly6g6c | -0.14 | enough cells in well |

5 consecutive records already listed, quoted:
| Target gene | Tnf reporter robust z-score | fewer than 50 cells in well |
| --- | --- | --- |
| Cer1 | 0.6 | enough cells in well |
| Fstl3 | -0.59 | enough cells in well |
| Slitrk3 | – | fewer than 50 cells per well; well left out of calls |
| Sfmbt2 | 0.12 | enough cells in well |
| Rrp15 | 0.67 | enough cells in well |
